{
  "source": "patent EP1905824A1",
  "about": "“A […] AND A METHOD FOR CELL […]” (Olympus Corporation, priority 2005, dated 2006)",
  "tested_on": "breast cancer tissue-derived adipose stromal cell and ERE-GFP-E10 cell",
  "assay": "Co-culture of breast cancer tissue-derived adipose stromal cell and ERE-GFP-E10, detection of estrogen signal",
  "type": "cell-based, human",
  "settings": "testosterone plus 2 x 10^-6 M dexamethasone; compared with androgen by itself; three breast cancer cases",
  "note": "For at least one compound, name, drawing or mass did not settle the structure.",
  "data": [
    {"smiles": "C[C@@H]1C[C@H]2[C@@H]3CCC4=CC(=O)C=C[C@]4(C)[C@@]3(F)[C@@H](O)C[C@]2(C)[C@@]1(O)C(=O)CO", "note": "[dexamethasone]", "values": [
      {"measurement": "GFP positive cell rate in the ERE-GFP-E10 cell", "value": "further increased"}
    ]}
  ]
}
